These are yes or no findings as the source states them, for the method shown. In cells and extracts the contact can be indirect. Some binding calls cover weakened binding; strength is not graded here.
How the values were obtained:
[1] = target: APP, endogenous, rat forebrain (rat) (UniProt P08592); experiment: co-immunoprecipitation from rat brain homogenates, various antibodies
[2] = target: APP, endogenous, rat forebrain (rat) (UniProt P08592); experiment: co-immunoprecipitation from rat brain after traumatic brain injury
[3] = target: APP, endogenous, rat forebrain (rat) (UniProt P08592); experiment: co-immunoprecipitation from rat forebrain lysates, IP with antibody to the C-terminus of APP
[4] = target: APP, endogenous full length, mouse forebrain (mouse) (UniProt P12023); experiment: co-immunoprecipitation from mouse brain homogenates, serially increased detergent stringency
[5] = target: APP, endogenous full length, mouse forebrain (mouse) (UniProt P12023); experiment: co-immunoprecipitation from mouse forebrain lysates, full length APP pulled down with anti-BACE1 antibody, rising detergent stringency

Chains of the proteins cited; added tags and fusions are not shown. Residues count along the entry.
UniProt P08592, residues 18-770: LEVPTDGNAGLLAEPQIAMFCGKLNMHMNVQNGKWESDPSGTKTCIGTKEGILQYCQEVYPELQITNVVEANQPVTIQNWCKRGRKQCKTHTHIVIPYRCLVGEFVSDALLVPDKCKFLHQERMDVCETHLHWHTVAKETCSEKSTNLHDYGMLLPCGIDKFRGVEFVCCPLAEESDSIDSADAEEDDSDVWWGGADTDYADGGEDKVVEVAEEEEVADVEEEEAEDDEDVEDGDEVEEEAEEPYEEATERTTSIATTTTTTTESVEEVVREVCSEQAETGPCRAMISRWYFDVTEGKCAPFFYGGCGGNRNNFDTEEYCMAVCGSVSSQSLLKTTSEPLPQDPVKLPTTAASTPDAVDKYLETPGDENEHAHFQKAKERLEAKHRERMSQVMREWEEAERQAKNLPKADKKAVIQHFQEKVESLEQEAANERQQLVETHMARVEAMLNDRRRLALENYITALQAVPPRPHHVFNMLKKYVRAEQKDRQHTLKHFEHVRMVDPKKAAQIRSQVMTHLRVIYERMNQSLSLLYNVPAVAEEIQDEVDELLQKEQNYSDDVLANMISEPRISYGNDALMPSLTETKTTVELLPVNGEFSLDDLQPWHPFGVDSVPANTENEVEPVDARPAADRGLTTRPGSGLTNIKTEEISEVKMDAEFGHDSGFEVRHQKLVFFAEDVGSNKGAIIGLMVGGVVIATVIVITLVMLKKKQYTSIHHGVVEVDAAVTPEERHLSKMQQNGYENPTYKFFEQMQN
UniProt P12023, residues 18-770: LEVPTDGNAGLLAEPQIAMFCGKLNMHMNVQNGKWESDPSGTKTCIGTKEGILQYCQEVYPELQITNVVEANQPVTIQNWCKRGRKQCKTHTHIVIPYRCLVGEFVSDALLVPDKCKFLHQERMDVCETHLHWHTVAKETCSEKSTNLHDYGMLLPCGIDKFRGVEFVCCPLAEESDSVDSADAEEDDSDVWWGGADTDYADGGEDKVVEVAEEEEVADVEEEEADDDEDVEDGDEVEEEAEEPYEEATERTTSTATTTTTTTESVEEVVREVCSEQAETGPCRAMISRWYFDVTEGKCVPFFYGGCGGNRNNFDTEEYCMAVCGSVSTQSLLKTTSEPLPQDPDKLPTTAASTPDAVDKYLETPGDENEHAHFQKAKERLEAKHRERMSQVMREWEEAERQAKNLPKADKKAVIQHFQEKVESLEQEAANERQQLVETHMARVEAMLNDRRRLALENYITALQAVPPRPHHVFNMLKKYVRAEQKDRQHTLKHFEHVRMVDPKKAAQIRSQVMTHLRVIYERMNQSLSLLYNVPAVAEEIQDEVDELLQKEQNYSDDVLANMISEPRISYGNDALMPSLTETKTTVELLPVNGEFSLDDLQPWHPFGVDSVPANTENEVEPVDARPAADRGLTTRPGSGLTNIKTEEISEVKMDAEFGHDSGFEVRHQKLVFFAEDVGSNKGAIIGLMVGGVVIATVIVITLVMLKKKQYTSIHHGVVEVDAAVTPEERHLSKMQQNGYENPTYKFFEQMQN
UniProt Q64605, residues 30-1907: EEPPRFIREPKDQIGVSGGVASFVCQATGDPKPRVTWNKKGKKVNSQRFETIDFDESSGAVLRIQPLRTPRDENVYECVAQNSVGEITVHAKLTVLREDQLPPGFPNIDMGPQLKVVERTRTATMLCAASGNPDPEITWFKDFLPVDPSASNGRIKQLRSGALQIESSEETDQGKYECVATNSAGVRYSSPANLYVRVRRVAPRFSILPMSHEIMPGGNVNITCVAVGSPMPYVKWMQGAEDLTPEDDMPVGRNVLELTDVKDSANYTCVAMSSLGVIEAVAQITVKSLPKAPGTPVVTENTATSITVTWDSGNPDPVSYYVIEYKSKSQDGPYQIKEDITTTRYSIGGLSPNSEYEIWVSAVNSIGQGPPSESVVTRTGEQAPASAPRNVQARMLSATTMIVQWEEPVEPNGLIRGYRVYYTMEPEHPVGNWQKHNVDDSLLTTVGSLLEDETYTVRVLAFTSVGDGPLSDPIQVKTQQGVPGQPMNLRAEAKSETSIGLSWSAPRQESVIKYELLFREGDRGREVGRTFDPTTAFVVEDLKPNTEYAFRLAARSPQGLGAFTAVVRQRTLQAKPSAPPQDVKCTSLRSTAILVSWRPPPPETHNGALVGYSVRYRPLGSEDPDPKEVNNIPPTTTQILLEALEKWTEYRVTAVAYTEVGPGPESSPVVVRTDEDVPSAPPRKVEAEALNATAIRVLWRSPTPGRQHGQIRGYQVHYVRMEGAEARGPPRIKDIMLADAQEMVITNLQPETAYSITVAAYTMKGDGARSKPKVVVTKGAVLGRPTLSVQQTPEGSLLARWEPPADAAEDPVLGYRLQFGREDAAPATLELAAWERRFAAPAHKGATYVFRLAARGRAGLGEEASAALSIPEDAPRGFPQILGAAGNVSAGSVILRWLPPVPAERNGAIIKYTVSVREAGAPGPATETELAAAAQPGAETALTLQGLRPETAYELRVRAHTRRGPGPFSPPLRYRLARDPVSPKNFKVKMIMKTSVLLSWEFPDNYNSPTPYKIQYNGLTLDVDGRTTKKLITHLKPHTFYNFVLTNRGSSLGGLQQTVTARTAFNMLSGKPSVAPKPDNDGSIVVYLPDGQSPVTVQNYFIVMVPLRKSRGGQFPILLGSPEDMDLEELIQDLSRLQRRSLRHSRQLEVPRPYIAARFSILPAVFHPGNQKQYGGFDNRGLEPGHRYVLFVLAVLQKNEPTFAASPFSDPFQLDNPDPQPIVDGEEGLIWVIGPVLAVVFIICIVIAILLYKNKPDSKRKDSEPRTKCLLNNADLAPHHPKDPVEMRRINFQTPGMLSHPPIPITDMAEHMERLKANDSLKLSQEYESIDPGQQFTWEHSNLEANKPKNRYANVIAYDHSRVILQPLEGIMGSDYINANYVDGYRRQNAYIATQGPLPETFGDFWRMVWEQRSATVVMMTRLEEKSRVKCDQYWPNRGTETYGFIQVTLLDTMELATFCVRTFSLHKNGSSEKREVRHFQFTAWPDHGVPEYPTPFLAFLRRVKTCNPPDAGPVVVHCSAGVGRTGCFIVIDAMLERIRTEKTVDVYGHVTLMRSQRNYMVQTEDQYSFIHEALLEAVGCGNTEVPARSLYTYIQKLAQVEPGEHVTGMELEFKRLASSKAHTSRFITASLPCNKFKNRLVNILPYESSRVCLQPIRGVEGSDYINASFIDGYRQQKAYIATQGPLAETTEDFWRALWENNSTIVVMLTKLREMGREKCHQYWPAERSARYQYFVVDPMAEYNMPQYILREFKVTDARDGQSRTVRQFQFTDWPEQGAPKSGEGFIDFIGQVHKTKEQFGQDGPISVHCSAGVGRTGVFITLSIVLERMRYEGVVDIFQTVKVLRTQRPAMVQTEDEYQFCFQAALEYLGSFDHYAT
UniProt P56818, residues 46-501: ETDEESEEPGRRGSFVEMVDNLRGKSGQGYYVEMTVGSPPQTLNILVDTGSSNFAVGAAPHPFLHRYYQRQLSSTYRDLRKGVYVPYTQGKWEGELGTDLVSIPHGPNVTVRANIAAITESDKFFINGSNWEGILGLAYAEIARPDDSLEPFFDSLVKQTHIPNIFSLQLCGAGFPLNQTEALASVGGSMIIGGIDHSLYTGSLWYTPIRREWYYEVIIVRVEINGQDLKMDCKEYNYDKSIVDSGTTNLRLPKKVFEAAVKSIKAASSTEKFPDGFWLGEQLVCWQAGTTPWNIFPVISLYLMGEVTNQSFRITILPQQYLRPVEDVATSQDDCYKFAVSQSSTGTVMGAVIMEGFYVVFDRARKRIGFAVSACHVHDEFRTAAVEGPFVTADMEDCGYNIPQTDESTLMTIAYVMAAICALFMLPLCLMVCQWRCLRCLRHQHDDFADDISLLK

| binding [1] | binding [3] | binding [4] | binding [5] | Substance | binding [2] |
| --- | --- | --- | --- | --- | --- |
| binds | binds | – | – | PTPσ, endogenous, rat forebrain (from UniProt Q64605 30-1907) (receptor) | binds |
| – | – | binds | binds | BACE1, endogenous, mouse forebrain (from UniProt P56818 46-501) (enzyme) | – |

Source: patent US20220072097A1, “PEPTIDES AND METHODS FOR TREATING NEURODEGENERATIVE DISORDERS” (OHIO STATE INNOVATION FOUNDATION, priority 2016, published 2022)
